# Out of some 360,000 compounds screened, about 610 (0.17%) were called active. Inconclusive results, whose numbers are uncertain, are shown with a selection of clear calls. Cut-off read from the data, not from the text of the source: active = inhibition above about 30%; inconclusive = no clear call, values can overlap the other calls; inactive = below that.
# Test system: Botulinum neurotoxin type A light chain protease (Clostridium botulinum A str. ATCC 3502)
# Experiment: blockers of BoNT/A LC substrate cleavage – biochemical, flow cytometry, MLPCN library, primary screen (AID 588499); note: plate controls were buffer without enzyme for full effect and enzyme alone for no effect
# Details: multiplex microsphere protease substrate cleavage, at 10 µM, stronger effect = higher value
row,SMILES,inhibition
1,Cc1nc(NC(=O)c2ccc(Br)s2)sc1C(=O)N(C)C,inconclusive: -1.2%
2,CCn1c(=O)[nH]c2cc(C(=O)N3CCN(c4ccccc4)CC3)ccc2c1=O,inconclusive: 2.2%
3,O=C(O)COc1ccc2nsnc2c1Cl,inactive: 0.9%
4,COc1ccc(CCNC(=O)C2CCCN(Cc3nc(-c4ccccc4C)oc3C)C2)cc1OC (configuration not stated),inconclusive: -3.1%
5,CC1CCN(C(=O)CCc2nc3cc(S(=O)(=O)N(C)C)ccc3n2C)CC1,inconclusive: -1.5%
6,CCOC(=O)c1[nH]cnc1C(=O)Nc1ccc(C)cc1,inconclusive: -38.6%
7,COC(=O)c1cc(C(=O)c2cccc(Cl)c2Cl)cn1C,inactive: 0.5%
8,O=C(NN1C(=O)C2C3c4ccccc4C(c4ccccc43)C2C1=O)C1CC1 (configuration not stated),inactive: 0%
9,CCCN(CCC)CCNS(=O)(=O)c1ccc2c(c1)oc(=O)n2C,inconclusive: -0.5%
10,CC(CN(C)C1CCN(C)CC1)c1ccccc1 (configuration not stated),inconclusive: -3.6%
11,O=C(NO)c1cc(OCC(F)(F)F)ccc1OCC(F)(F)F,inactive: -0.2%
12,CC(C)Cc1nnc(NS(=O)(=O)Cc2ccccc2)s1,inactive: 7.2%
13,Cc1ccnc(NS(=O)(=O)c2ccc(N=CC3=C(O)CC(C)(C)CC3=O)cc2)n1,inconclusive: 1.3%
14,CN(C)c1ccc(C=Nc2ccccc2)cc1,inconclusive: 0.7%
15,O=C1NC(=O)C(CCc2ccncc2)(Cc2ccc3c(c2)OCO3)C(=O)N1CCc1ccccc1 (configuration not stated),inconclusive: -2.4%
16,COc1ccc(CCNC(=O)c2cc(-c3ccccc3OC)on2)cc1OC,inconclusive: -3.8%
17,Cc1cccn2c(=O)c3cc(C(=O)NC4CCS(=O)(=O)C4)n(Cc4ccccc4)c3nc12 (configuration not stated),inactive: 0%
18,COC(=O)c1ccc(Cl)c(NC(C)=O)c1,inconclusive: -5.7%
19,CC(C)c1cc(C(=O)N/N=C/c2c[nH]c3ccccc23)n[nH]1,inconclusive: 18%
20,O=C(Nc1cccc(C(=O)N2CCCC2)c1)c1ccccc1,inconclusive: -0.7%
21,CCN(CC)c1ccc2cc(-c3nc(-c4cc5ccccc5oc4=O)cs3)c(=O)oc2c1,active: 87.2%
22,Cc1ccc(CSc2nnc(-c3ccc(S(=O)(=O)N4CCCC4)cc3)o2)cc1,inactive: 0.5%
23,CCCC(=O)Nc1ccc(C(=O)N/N=C/c2cccnc2)cc1,inconclusive: -0.1%

row,SMILES,inhibition
1,COc1cc(O)c(NC(C)=O)c2nonc12,inconclusive: 3.4%
2,CC1CCN(C(=O)c2ccc(N3C(=O)C4CCC(C)CC4C3=O)cc2)CC1 (configuration not stated),inconclusive: 8.2%
3,N#CCCN(C(=O)Nc1ccccc1)C1CCCCC1,inactive: -0.1%
4,Cc1ccc(S(=O)(=O)N2CCC(C(=O)OC(C)C(=O)NCc3ccc4c(c3)OCO4)CC2)cc1 (configuration not stated),inconclusive: -2.6%
5,NS(=O)(=O)c1ccc(NC(=O)Cc2cccs2)cc1,inactive: -7.1%
6,O=C(N/N=C/C(Br)=C/c1ccccc1)C(O)c1ccccc1 (configuration not stated),inactive: 0.9%
7,CCCc1cc(=O)[nH]c(SCc2cc(Cl)ccc2OC(F)F)n1,inactive: -5.1%
8,CCOc1ccc(OCc2cccc(C(=O)N3CCOCC3)c2)cc1,inconclusive: -3.2%
9,CCCn1c(SCC(=O)Nc2ccc3c(c2)OCCO3)n[nH]c1=O,inconclusive: -7.2%
10,CC(=O)NCCn1c(SCc2ccccc2F)nc2ccccc2c1=O,inactive: -1.9%
11,CC(OC(=O)CCN=C1NS(=O)(=O)c2ccccc21)C(=O)Nc1ccc(F)c(F)c1F (configuration not stated),inconclusive: 2.1%
12,COc1ccc(Cn2c(C)nc3c(c(=O)c4ccccc4n3C)c2=O)cc1,inconclusive: -50.5%
13,CCNC(=O)C1(C)CCN(Cc2ccccc2C#N)C1 (configuration not stated),inactive: -0.4%
14,COC(=O)CC1=C(C(=O)OC)C2(C(=O)Nc3c(C)cccc32)C(C#N)=C(N)O1 (configuration not stated),inconclusive: 2.6%
15,O=S(=O)(c1ccccc1)c1cnn(-c2ccccc2)c1-c1ccc(Cl)cc1,inconclusive: -0.6%
16,Cc1ccc2nc3c(cc(C(N)=S)c(=N)n3CCCOC(C)C)c(=O)n2c1,active: 45.3%
17,CCc1ccc(CN(C(=O)c2cc3ccccc3oc2=O)C2CCS(=O)(=O)C2)cc1 (configuration not stated),inactive: 2.1%
18,CCOC(=O)N1CCN(CCC(=O)Nc2cccc(Br)c2)CC1,inconclusive: 0.1%
19,COC(=O)CN1C(=O)C2(C(C#N)=C(N)Oc3ccccc32)C2=C1CC(C)(C)CC2=O (configuration not stated),inactive: 1.9%
20,CC1(NC(=O)COc2ccccc2-c2ccccc2)CCS(=O)(=O)C1 (configuration not stated),inactive: -0.4%
21,CCCN(CCC)CCNC(=O)c1cc2c(-c3ccccc3F)nn(C)c2s1,inactive: -3.3%
22,COc1ccccc1OCCOCCn1cnc2ccccc2c1=O,inconclusive: 4.3%
23,CCOC(=O)/C(=N\Nc1cccc(C(F)(F)F)c1)N(CCOC)CCOC,inconclusive: -8.6%

# Rewritten tab-delimited: entries from further up.
row	SMILES	inhibition
4	Cc1ccc(S(=O)(=O)N2CCC(C(=O)OC(C)C(=O)NCc3ccc4c(c3)OCO4)CC2)cc1 (configuration not stated)	inconclusive: -2.6%
5	NS(=O)(=O)c1ccc(NC(=O)Cc2cccs2)cc1	inactive: -7.1%
6	O=C(N/N=C/C(Br)=C/c1ccccc1)C(O)c1ccccc1 (configuration not stated)	inactive: 0.9%
7	CCCc1cc(=O)[nH]c(SCc2cc(Cl)ccc2OC(F)F)n1	inactive: -5.1%
8	CCOc1ccc(OCc2cccc(C(=O)N3CCOCC3)c2)cc1	inconclusive: -3.2%
9	CCCn1c(SCC(=O)Nc2ccc3c(c2)OCCO3)n[nH]c1=O	inconclusive: -7.2%

# (continued)

row,SMILES,inhibition
1,COc1cc(CNCCN(C)C)c(Br)cc1OCC(=O)NCc1ccccc1,inactive: 0.5%
2,O=C(OCc1ccccc1)C1CCCN1C(=O)c1ccccc1[N+](=O)[O-] (configuration not stated),inconclusive: 2.8%
3,Cc1nc(C)c(-c2csc(Nc3ccc(Cl)cn3)n2)s1,inactive: -0.2%
4,CCCN1C(=O)c2cccc3c(N4CCCCC4)ccc(c23)C1=O,active: 32%
5,CCC1Oc2ccccc2N(CC(=O)Nc2ccccc2OC)C1=O (configuration not stated),inconclusive: 2.2%
6,CN(C)c1ccc(P(=O)(OC2CCCCC2)C(O)c2ccncc2)cc1 (configuration not stated),inconclusive: 20%
7,COc1ccc(/C=N\NC(=O)c2cccc(F)c2)cc1COc1ccccc1,inconclusive: 7%
8,O=C(CSCc1ccc(Cl)cc1)N/N=C/c1ccc(OCC(=O)Nc2ccccc2)cc1,inactive: -0.6%
9,COc1ccc(-c2csc(COC(=O)C(C)(C)C)n2)cc1,inconclusive: -25.9%
10,O=C(Cn1cc(SCc2cccc(Cl)c2)c2ccccc21)N1CCOCC1,inactive: -0.2%
11,Cc1cccc(-c2nc(CS(=O)CC(=O)NC3CCCCC3)c(C)o2)c1 (configuration not stated),inactive: 0.2%
12,C/C(=N\Nc1cc(Cl)nc(C)n1)c1ccc(C)cc1,inactive: -5.5%
13,CCOC(=O)c1c(N)c2cc([N+](=O)[O-])ccc2n1C,inconclusive: 7%
14,Cc1nc2ccccc2c2c1C(=O)N(C1CCCCCCC1)C2=O,inconclusive: -2.6%
15,O=C(Nc1ccc(F)c(Cl)c1)C1CCCCC1,inactive: -0.4%
16,Cc1ccc([N+](=O)[O-])c(OCCN2CCC(Cc3ccccc3)CC2)c1,inactive: -0.2%
17,CN(C)Cc1ccccc1C(O)(c1ccccc1)c1ccccc1,inconclusive: -3.7%
18,CCCCc1cc(=O)oc2cc(C)cc(OCC(=O)O)c12,inconclusive: 1.6%
19,Cc1ccc(C(C)C)c(OCC(=O)NNC(=O)Nc2ccccc2)c1,inconclusive: 3.4%
20,CC(C)C(O)(C(=O)NNc1ccccc1)C(C)C,inconclusive: -2.9%
21,CC(=O)Cc1nsc(NC(=O)c2cn(-c3ccccc3)nc2-c2ccc(Br)cc2)n1,inconclusive: 0.4%
22,O=C(C[n+]1cc(Br)cc2ccccc21)c1ccc(Br)cc1,active: 120%
23,CC(=O)N1CSCC1C(=O)NNS(=O)(=O)c1cccc(C(F)(F)F)c1 (configuration not stated),inconclusive: 18.5%

row,SMILES,inhibition
1,CNC(=O)CN1C(=O)NC(Cc2c[nH]c3ccccc23)C1=O (configuration not stated),inactive: -1%
2,Cc1ccc(C2(C)NC(=O)N(CC(=O)NNC(=O)c3cc(C)oc3C)C2=O)cc1 (configuration not stated),inconclusive: 1%
3,COCC(=O)N1CCC(Oc2ccc(C(=O)NC3CCOC(C)(C)C3)cc2)CC1 (configuration not stated),inactive: 2.1%
4,COc1ccc(CCNCc2cc3ccc(C)cc3[nH]c2=O)cc1OC,inactive: -1.9%
5,C=CCNC(=S)NC(=O)c1csc([N+](=O)[O-])c1,inconclusive: 7%
6,C[C@@H]1CN([C@@H](C)CO)C(=O)CCCn2nncc2CO[C@@H]1CN(C)S(=O)(=O)c1cn(C)cn1,inactive: -0.5%
7,CCCCn1c(SCC(=O)Nc2nnc(CC)s2)nc2ccccc2c1=O,inconclusive: 0.2%
8,CC1(C)CC(=O)c2cc(OCC(=O)NCCCN3CCN(c4ccc(F)cc4)CC3)ccc2O1,inactive: 0.4%
9,NC(=O)C1(N2CCCCC2)CCN(CC(=O)Nc2ccccc2-c2ccccc2)CC1,inconclusive: -1.3%
10,O=C(Cc1cccs1)N/N=C/C=C/c1ccccc1[N+](=O)[O-],inactive: -2.5%
11,O=C(COc1ccccc1F)NC1CC1,inconclusive: -3.2%
12,Cn1c(SCc2cc(=O)[nH]c(C(C)(C)C)n2)nnc1C(F)(F)F,inconclusive: -11.8%
13,CCC(C)(C)NC(=O)C(c1ccc(C)cc1)N(CC1CCCO1)C(=O)c1csnn1 (configuration not stated),inactive: -3.3%
14,CCCCCc1c(C)c(C#N)c2nc3ccccc3n2c1-n1ccnc1C,inactive: 0.5%
15,COc1cc(NS(=O)(=O)c2ccc(NC(=O)c3ccc(C)o3)cc2)nc(OC)n1,inconclusive: 22.2%
16,COC(=O)CCC(=O)Nc1ccc(OC)cc1,inactive: 0.2%
17,CC1=CC(C)(C)Nc2ccc(Cc3ccc4c(c3)C(C)=CC(C)(C)N4)cc21,inconclusive: -7%
18,CS(=O)(=O)c1ccc(C(=O)Nc2ccccc2Cl)cc1,inconclusive: 0.4%
19,Cc1ccc(/C=C2\SC(=S)N(C3CCS(=O)(=O)C3)C2=O)o1 (configuration not stated),active: 35%
20,CCOc1ccc(CN(C)C(=O)c2cccc(S(=O)(=O)Nc3ccccc3OC)c2)cc1OC,inactive: 0%
21,CCOc1ccc(-c2c(C)n(-c3ccc(OCC)cc3)c3[n+]2CCCCC3)cc1,inconclusive: 4%
22,Cn1nc([N+](=O)[O-])c2c(-c3nc4ccccc4s3)c(N)n(C3CCCCC3)c2c1=O,inconclusive: 2.8%
23,CN(C)c1ccc(/C=N/NC(=O)c2ccccn2)cc1,inactive: 0.2%

# Ordered by heavy-atom count (descending): some entries from above
row,SMILES,inhibition
6,C[C@@H]1CN([C@@H](C)CO)C(=O)CCCn2nncc2CO[C@@H]1CN(C)S(=O)(=O)c1cn(C)cn1,inactive: -0.5%
4,COc1ccc(CCNCc2cc3ccc(C)cc3[nH]c2=O)cc1OC,inactive: -1.9%
11,O=C(COc1ccccc1F)NC1CC1,inconclusive: -3.2%

# Source: PubChem BioAssay AID588499 (NMMLSC, 2011)
